Measurements published in patent US20200277571A1, “METHOD FOR AMPLIFYING CONE PHOTORECEPTORS OR ROD PHOTORECEPTORS USING DORSALIZATION SIGNAL TRANSMITTER OR VENTRALIZATION SIGNAL TRANSMITTER” (RIKEN, priority 2017, published 2020).
Some of these results come from one statement about several compounds together. At least one structure is not confirmed: it was looked up by name or label, or the drawing left a doubt.

System: OTX2-positive and OC2-positive cells in retinal tissue produced from human ES cells
Experiment: Immunostaining for OTX2 and OC2 of retinal tissue, day 70-75, image analysis (Image J)
Format: cell-based
Settings: 0.15 nM BMP4 or 500 nM Cyclopamine-KAAD
Description: Here, the proportion of the number of OC2-positive cells contained in the neural retinal tissue can be determined by those of ordinary skill in the art by performing conventionally possible immunostaining and the like by using an anti OC2 antibody, DAPI and the like, measuring the number of OC2-positive cells, the number of DAPI-positive cells and the like, and identifying the ratio thereof contained in a neural retinal tissue. The expression level of OC2 protein can be determined by those of ordinary skill in the art by performing conventionally possible immunostaining and the like by using an anti OC2 antibody, DAPI and the like, and analyzing the region stained by an anti OC2 antibody by using image analysis software such as Image J and the like to identify the signal intensity of OC2-positive cells. Alternatively, the proportion of the number of OC2-positive cells contained in a neural retinal tissue and/or the OC2 protein expression level of OC2-positive cell may be identified by analysis using conventional flow cytometry using an antibody against OC2 protein.
A cell aggregate containing a retinal tissue was prepared by the method described in “Kuwahara et al. Nat Commun 2015, 19(6), 6286-” after modification in part. That is, the aforementioned cultured ES cells were individually dispersed using TrypLE Express (Invitrogen), and the individually dispersed human ES cells were suspended in 100 μL of a serum-free medium in a cell non-adhesive 96 well plate (SUMILON spheroid plate, SUMITOMO BAKELITE CO., LTD.) at 9×10^3 cells per well to allow rapid formation of aggregates, after which they were cultured at 37° C., 5% CO2. As the serum-free medium therefor, a serum-free medium obtained by adding 10% KSR, 450 μM 1-monothioglycerol, 1× Chemically defined lipid concentrate, 5 mg/mL BSA, 20 μM Y27632 to a 1:1 mixture of F-12 medium and IMDM medium was used. At 6 days after the start of suspension culture, BMP4 at a final concentration of 1.5 nM was added and suspension culture was continued. […]

## CC1=C2C[C@H]3[C@@H](CC=C4CC(=O)CC[C@@]43C)[C@@H]2CC[C@]12O[C@@H]1C[C@H](C)CN(CCNC(=O)CCCCCNC(=O)CCc3ccccc3)[C@H]1[C@H]2C [Cyclopamine-KAAD]
  OC2 protein expression level of OC2-positive cell compared to no dorsalization signal transmitter and/or BMP signal transduction pathway inhibitor added: 34%-36%
  proportion of the number of cells that express OC2 compared to that when the BMP signal transduction pathway inhibitor is added: 45%-47%
Stage where emergence rate of cone photoreceptor precursor reaches maximum
  proportion of the number of cells that express OC2 compared to that when a dorsalization signal transmitter is not added: 60%-65%
